# Library compounds against nucleic acid targets

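The test is a small-molecule microarray: each compound is printed twice on a reactive slide, and binding shows as fluorescence of the labelled oligonucleotide after washing. The data file lists only calls. An earlier report of the laboratory on the PreQ1, TPP and SAM-II riboswitches (doi:10.1038/s41467-019-09493-3) used 1 µM RNA for 2 h and required a mean Z-score above 3 (spot signal-to-noise against the whole library), a score well above that on a control array, and duplicate spots agreeing (coefficient of variation under 100); it then also set aside compounds that hit other targets, which this list keeps. The cut-offs behind this list may differ. A missing hit is not proof of no binding, and a hit is not a measured affinity.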 “1” means called a hit, “0” means screened and not called a hit. This is an unselected part of the compounds tested. A target missing from an entry has no call listed here. A dash means that no call is listed here.

Targets (5′ to 3′):
SAM-II: SAM-II riboswitch RNA pseudoknot, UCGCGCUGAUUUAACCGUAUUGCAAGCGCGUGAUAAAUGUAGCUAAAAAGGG. Hit rate about 1% of about 21,000 compounds.
TPP: TPP riboswitch RNA three-way junction, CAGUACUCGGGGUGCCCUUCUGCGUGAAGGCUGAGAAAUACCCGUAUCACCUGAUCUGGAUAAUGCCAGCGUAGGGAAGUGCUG. Hit rate about 0.7% of about 24,000 compounds.
PreQ1: PreQ1 riboswitch RNA pseudoknot, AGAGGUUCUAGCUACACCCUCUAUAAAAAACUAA. From B. subtilis. Hit rate about 0.7% of about 24,000 compounds.

compound,SAM-II,TPP,PreQ1
Clc1ccc(-c2nc(-c3cc4cc(Cl)ccc4o3)cs2)cc1,0,0,0
Cc1ccc(NC(=S)NCCO)c(C)c1,0,0,0
Cn1c(-c2ccc(Cl)cc2)cnc1NCc1ccccc1,0,0,0
Cn1c(=O)n(C)c2cc(CNc3ccc(F)cc3)ccc21,-,0,0
CCCCNc1nc(C(C)C)c2c(c1C#N)CC(C)(C)OC2,0,0,0
Cc1nc(=O)c2c3c(sc2[nH]1)CCCC3,0,0,0
COc1cccc(NC(c2ccc(F)cc2)c2nnc(-c3ccccc3)o2)c1 (stereo unspecified),0,0,0
CC(C)(C)c1n[nH]c2c1C(c1ccccc1)C(C#N)=C(N)O2 (stereo unspecified),0,0,0
CC(C)NCCn1c(-c2ccccc2)cn2c3ccccc3nc12,0,0,0
C=CC[n+]1c(-c2ccc(C)cc2)csc1Nc1ccc(C)cc1,0,0,0
CC(C)(NC(=O)c1cc(Cl)c2ccccc2c1O)C(=O)O,0,0,0
COc1cc(Nc2c3c(nc4ccccc24)CCC3)cc(OC)c1OC,0,0,0
Nc1ccc(C(=O)c2cccs2)cc1[N+](=O)[O-],0,0,0
Cc1sc2nc(CCN)nc(N(CCN(C)C)Cc3ccccc3)c2c1C,1,0,0
NS(=O)(=O)CCCC(=O)NCc1cccnc1N1CCCC(O)C1 (stereo unspecified),0,0,0
NC1=C(c2nc3ccccc3[nH]2)C(=O)CN1c1ccc(Oc2ccccc2)cc1,-,0,0
OC(CN1CCOCC1)c1ccc(-c2ccc(F)cc2Cl)cc1 (stereo unspecified),0,0,0
Cc1cc(Nc2ccc(N3CCOCC3)cc2)n2nc(C)nc2n1,0,0,0
c1cncc(-c2nc3ccccc3s2)c1,0,0,0
CCNC(=O)Nc1ccc2ncc(Nc3ccc(C)cc3)nc2n1,0,0,0
O=C1CC(NCCc2c[nH]c3ccccc23)C(=O)N1c1ccc(F)c(Cl)c1 (stereo unspecified),0,0,0
Cc1ccccc1Cn1c(NCCCO)nc2c1c(=O)n(C)c(=O)n2C,0,0,0
CCC(Sc1nnc(N)s1)C(=O)NC(C)c1ccccc1 (stereo unspecified),0,0,0
CCCOc1ccc(C(=O)CCNc2cccc(Cl)c2)cc1,0,0,0
CCn1c2ccccc2c2cc(CNc3cc([N+](=O)[O-])ccc3OC)ccc21,0,0,0
O=C1C=C(NC(c2ccccc2)c2ccccc2)C2(CCCCC2)O1,0,0,0
Cc1ccc(OCCCN(C)CC2(O)CCCNC2)c(C)c1 (stereo unspecified),0,0,0
N#Cc1ccc(NC(=O)NCC2(O)CCCNC2)c2ccccc12 (stereo unspecified),0,0,0
O=C(CCc1cc2n(n1)CCCNC2)NCc1cccnc1-n1cncn1,0,0,0
COc1ccc(CCN(Cc2ccncc2)C(=O)CC2COCCN2)cc1 (stereo unspecified),1,0,0
OCCCCCNc1ncnc2sc3c(c12)CCCC3,0,0,0
Fc1ccc2nccc(Nc3ccc(Cl)cc3)c2c1,0,0,0
CCC(C)(C)Nc1c(-c2ccc(C)c(C)c2)c(=O)c1=O,-,0,0
CCc1ccc(-c2[nH]ncc2CNCc2cccs2)cc1,-,0,0
COc1ccc2c(c1OC)C(=O)OC2Nc1ccc(Cl)c(C(F)(F)F)c1 (stereo unspecified),0,0,0
C[C@H](O)[C@@H]1C(=O)N2C(C(=O)O)=C(S[C@@H]3CN[C@H](CNS(N)(=O)=O)C3)[C@@H](C)[C@@H]12,0,0,0
Cc1ccc(NC(=O)c2nnn(Cc3ccc(Br)cc3F)c2N)c(Cl)c1,0,0,0
COc1ccc(-c2cc(Nc3ccc(Br)cc3)nc(C)n2)cc1,-,0,0
Cn1c(CC2CCNCC2)nnc1SCc1ccc(C(F)(F)F)nc1,0,0,0
Cc1[nH]c2c(C)cccc2c1C(O)CN1CCC(C)CC1 (stereo unspecified),-,0,0
Cc1ccc(-c2cc(C(=O)O)c3ccccc3n2)c(C)c1,0,0,0
C#CCSc1nc(N)c(C#N)c(-c2cccc(Cl)c2)c1C#N,0,0,0
Cn1c(N)cc(=O)[nH]c1=O,0,0,0
NC1=C(Nc2ccc(Br)cc2)C(=O)c2ccccc2C1=O,0,0,0
CC(C)(CO)NC(=O)c1cccc(S(=O)(=O)N2CCOCC2)c1,0,0,0
CCOC(=O)N1CCN([N+]([O-])=NOc2ccc([N+](=O)[O-])cc2[N+](=O)[O-])CC1,0,0,0
CCc1cc(NCc2ccccc2C)n2nc(-c3cccnc3)nc2n1,-,0,0
COc1cc2c(cc1O)CCC1C2CC[C@@]2(C)C1CC[C@@H]2O (stereo partly specified),0,0,0
COc1ccc(C2C(C(=O)c3ccccc3)=C(O)C(=O)N2CCN)cc1OC (stereo unspecified),0,0,0
Nc1c(C(=O)c2ccccc2)oc2ccc(Cl)cc12,0,0,0
COc1cc(Cl)cn2c(-c3cccc(NC4CNC4)n3)cnc12,0,0,0
COCCCN1CCC(NC(=O)c2cc(Cl)c(N)c3c2OCC3)CC1,0,0,0
Nc1ccccc1C(=O)N1CCc2ccccc21,0,0,0
Nc1ncnc2c1ncn2[C@@H]1O[C@H](CO)[C@@H](O)[C@@H]1O.O,0,0,0
NCC1NCCc2ccccc21 (stereo unspecified),0,0,0

The first 4 entries again:

- Clc1ccc(-c2nc(-c3cc4cc(Cl)ccc4o3)cs2)cc1 | SAM-II: 0; TPP: 0; PreQ1: 0
- Cc1ccc(NC(=S)NCCO)c(C)c1 | SAM-II: 0; TPP: 0; PreQ1: 0
- Cn1c(-c2ccc(Cl)cc2)cnc1NCc1ccccc1 | SAM-II: 0; TPP: 0; PreQ1: 0
- Cn1c(=O)n(C)c2cc(CNc3ccc(F)cc3)ccc21 | TPP: 0; PreQ1: 0

From ROBIN, a set of small-molecule microarray screens (doi:10.1002/anie.202211358).